# In PubChem BioAssay AID493014 (National Center for Advancing Translational Sciences (NCATS), 2011):
# The list shows a part of the results. Shown are side measurements of this screen, not its main read-out; they come without a call. Most of these compounds were active or inconclusive in the main read-out, so they are no random draw. The note in brackets gives the kind of curve behind each potency; many fits are weak.
# Assay: qHTS Assay to Find Inhibitors of Chronic Active B-Cell Receptor Signaling
# Settings: ABC-DLBCL IkBa-CBG/CBR reporter, luminescence ratio (green luciferase fused to IkBa over red control in TMD8 lymphoma cells), 4 h
# Outline: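 TMD8 human ABC-DLBCL cells with doxycycline-inducible IκBα–green luciferase fusion and unfused red luciferase, in 0.5% FBS medium; compounds up to 46 uM, 4 h at 37C. Green/red luminescence ratio, filter-overlap corrected, fitted to concentration-response curves.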
# [1] = measured here: CBR red luminescence, cell number
# [2] = measured here: IkBa-CBG green luminescence
Structure (SMILES),AC50 [1],AC50 [2]
COc1ccc(NC(=O)CC(Cc2ccccc2)C(=O)O)cc1 (stereo not drawn),"29.1 µM [rising, single point]",
CC(CCN1CCC(n2nccc2NC(=O)c2ccccc2Cl)CC1)c1ccccc1 (stereo not drawn),"2.82 µM [falling, partial curve, poor fit]",
CCCCn1c(Cc2ccccc2)n[nH]c1=S,,"16.4 µM [falling, partial curve, poor fit]"
COc1ccc(/C=N\NC(=O)c2ccccc2)cc1COc1ccc(F)cc1,"8.91 µM [falling, partial curve, poor fit]",
COc1ccc(OCCNS(=O)(=O)c2ccccc2)cc1,"15.8 µM [rising, partial curve, poor fit]",
CCOC(=O)C1=C(C)N=C2SCCC(=O)N2C1c1cccs1 (stereo not drawn),"10 µM [falling, partial curve, poor fit]",
C=CCOc1c(Br)cc(CNc2ccc(NC(=O)C(C)C)c(OC)c2)cc1OCC,"29.1 µM [rising, single point]",
CCCn1c(N)c(N(CCOC)C(=O)COC(=O)c2ccccc2NCCO)c(=O)[nH]c1=O,"13 µM [falling, partial curve]",
Cc1cc(C)cc(NS(=O)(=O)c2ccc(-c3cnc(C4CC4)o3)cc2)c1,"7.08 µM [rising, partial curve]","7.94 µM [falling, partial curve]"
CCS(=O)(=O)N1Cc2ccccc2CC1C(=O)Nc1ccc(F)c(F)c1 (stereo not drawn),"1.78 µM [falling, full curve, poor fit]",
S=C(NCCN1CCOCC1)N/N=C/c1cccs1,"35.5 µM [falling, single point]","12.6 µM [falling, partial curve]"
C/C(CC(=O)Nc1cccc(C(F)(F)F)c1)=N\NC(=O)Cc1ccccc1,"14.1 µM [falling, single point]",
COc1cc2c(cc1NCc1ccccn1)oc1ccccc12,"6.51 µM [rising, single point]",
COc1ccc(-n2nnc3c(SCC(=O)NCC4CCCO4)ncnc32)cc1 (stereo not drawn),"25.1 µM [falling, single point]",
O=C1N=c2ccccc2=C1c1sc(NS(=O)(=O)Cc2ccccc2)nc1O,"35.5 µM [falling, single point]","31.6 µM [rising, single point]"
Cn1cnc2cc(OC(=O)c3ccccc3)ccc21,"14.6 µM [rising, partial curve, poor fit]",
Cc1ccc(C(=O)NCC2(c3ccccc3)CCCC2)cc1,"7.08 µM [rising, partial curve, poor fit]",
COc1ccc(C(=O)c2sc3nc(C)cc(-c4cccs4)c3c2N)cc1OC,"29.1 µM [falling, single point]",
CCc1ccc2[nH]c(=O)c(CN(Cc3ccccc3)Cc3nnnn3Cc3ccco3)cc2c1,"0.82 µM [falling, full curve, poor fit]",
CN(Cc1nc2ccccc2c(=O)[nH]1)c1ccccc1,"0.82 µM [rising, full curve, poor fit]",

# Shown bar-delimited: 2 of the compounds above
Structure (SMILES) | AC50 [1] | AC50 [2]
Cc1cc(C)cc(NS(=O)(=O)c2ccc(-c3cnc(C4CC4)o3)cc2)c1 | 7.08 µM [rising, partial curve] | 7.94 µM [falling, partial curve]
CCS(=O)(=O)N1Cc2ccccc2CC1C(=O)Nc1ccc(F)c(F)c1 (stereo not drawn) | 1.78 µM [falling, full curve, poor fit] | 

# More compounds.

Structure (SMILES),AC50 [1],AC50 [2]
CCOC(=O)c1ccc2c(c1)N(CC)C(=O)c1ccccc1S2,"22.4 µM [falling, single point]",
Cc1ccc(S(=O)(=O)NC(=O)COc2ccccc2)cc1,"1 µM [rising, full curve, poor fit]",
c1ccc2c(c1)OC(CCCN1CCCCC1)c1ccccc1S2 (stereo not drawn),"29.1 µM [falling, single point]",
COC(=O)C1=C(O)/C(=C\c2ccc(CNC(=O)C(=O)Nc3ccc(C)cc3)o2)N=C1C,"3.16 µM [falling, partial curve, poor fit]",
COc1cc2c(c(OC)c1OC)C(c1ccc(O)cc1)CC(=O)O2 (stereo not drawn),,"20.6 µM [falling, partial curve, poor fit]"
O=S(=O)(/C=C/c1ccccc1)N1CCN(c2cccc(Cl)c2)CC1,"23.1 µM [rising, single point]",
Cc1sc(NC(=O)C2C3CCC(O3)C2C(=O)O)c(C(=O)OC(C)C)c1-c1ccc(Cl)cc1 (stereo not drawn),"1.26 µM [falling, partial curve, poor fit]",
COc1cc(CN2CC(=O)N(c3cccc(Cl)c3C)C2=S)cc(OC)c1OC,"3.98 µM [falling, full curve]",
COc1ccc(OC)c(NC(=O)CSc2ncnc3c2cnn3-c2ccccc2Cl)c1,"5.8 µM [falling, full curve]",
O=C(c1ccco1)N1N=C(c2cccs2)CC1c1cc([N+](=O)[O-])ccc1O (stereo not drawn),"8.91 µM [rising, partial curve, poor fit]",
COc1ccc(-n2c(SCC(N)=O)nnc2-c2cccnc2)cc1,"16.4 µM [rising, partial curve, poor fit]",
Cc1oc2c(cc(NS(=O)(=O)c3ccc(C(C)C)cc3)c3ccccc32)c1C(=O)O,"35.5 µM [falling, partial curve, poor fit]",
CSc1cccc(NC(=O)CCc2ccccc2)c1,"7.94 µM [rising, partial curve, poor fit]",
FC(F)(F)c1cccc(-c2noc(CN3CCOCC3)n2)c1,"35.5 µM [rising, single point]",
CCNC(=O)n1nccc1C(C)Oc1ccccc1 (stereo not drawn),"35.5 µM [rising, partial curve, poor fit]",
CCCCSc1nc(N)c(C#N)c(-c2cccs2)c1C#N,"18.4 µM [falling, single point]",
CCOC(=O)c1c(NC(=O)C(C)OC(=O)c2ccc(NC(=O)CC#N)cc2)sc2c1CCCC2 (stereo not drawn),"29.1 µM [falling, partial curve, poor fit]",
COC(=O)c1sc(S(=O)(=O)Nc2ccc3cn[nH]c3c2)c(C(=O)OC)c1C,"6.51 µM [rising, single point]",
Cc1occc1C(=O)N/N=C/c1ccccn1,"12.6 µM [falling, partial curve, poor fit]",
CN(c1ccccc1)S(=O)(=O)c1cccc(NC(=O)COc2cccc([N+](=O)[O-])c2)c1,"14.6 µM [falling, partial curve]",
